# Laboratory results published in paper PMC12077264.
# No constants are given. Whether binding was seen depends on the method and setting. In cells and extracts the contact can be indirect. Some binding calls cover weakened binding; strength is not graded here. Where a sequence is shown, tags or fusion partners need not be part of it.
# T1: GST:CcmC (wild type), in GST:CcmCDE(H130A) or GST:CcmC(D:flag)E(H130A) (E. coli) (UniProt P0ABM1)
# T1 sequence: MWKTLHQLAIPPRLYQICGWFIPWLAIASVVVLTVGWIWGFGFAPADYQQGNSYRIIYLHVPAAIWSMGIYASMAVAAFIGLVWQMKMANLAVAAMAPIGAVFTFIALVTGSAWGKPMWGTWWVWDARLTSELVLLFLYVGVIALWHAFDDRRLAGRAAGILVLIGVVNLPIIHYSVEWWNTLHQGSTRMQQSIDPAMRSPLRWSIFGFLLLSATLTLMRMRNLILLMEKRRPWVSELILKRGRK
# Molecular target: T1, GST:CcmC (wild type), in GST:CcmCDE(H130A) or GST:CcmC(D:flag)E(H130A) (E. coli)
# Assay: pull-down; GST affinity purification via the N-terminal GST tag on CcmC of co-expressed GST:CcmCDE(H130A) or GST:CcmC(D:flag)E(H130A) from E. coli; 5 ug affinity purified protein on SDS-PAGE, Coomassie stain and α-GST, α-CcmE, α-FLAG immunoblots
row,Binder,binding
1,"CcmD(G15C), in GST:CcmCDE(H130A) (protein, UniProt P0ABM5 1-69) MTPAFASWNEFFAMCGYAFFVWLAVVMTVIPLVVLVVHSVMQHRAILRGVAQQRAREARLRAAQQQEAA",binds
2,"CcmD(A45C), in GST:CcmCDE(H130A) (protein, UniProt P0ABM5 1-69) MTPAFASWNEFFAMGGYAFFVWLAVVMTVIPLVVLVVHSVMQHRCILRGVAQQRAREARLRAAQQQEAA",binds
3,"CcmD(I46C), in GST:CcmCDE(H130A) (protein, UniProt P0ABM5 1-69) MTPAFASWNEFFAMGGYAFFVWLAVVMTVIPLVVLVVHSVMQHRACLRGVAQQRAREARLRAAQQQEAA",binds
4,"CcmD(A18C), in GST:CcmCDE(H130A) (protein, UniProt P0ABM5 1-69) MTPAFASWNEFFAMGGYCFFVWLAVVMTVIPLVVLVVHSVMQHRAILRGVAQQRAREARLRAAQQQEAA",binds
5,"CcmD(F19C), in GST:CcmCDE(H130A) (protein, UniProt P0ABM5 1-69) MTPAFASWNEFFAMGGYACFVWLAVVMTVIPLVVLVVHSVMQHRAILRGVAQQRAREARLRAAQQQEAA",binds

# Further lines, results first:
row,binding,Binder
1,binds,"CcmD(Y17C):flag, in GST:CcmC(D:flag)E(H130A) (protein, UniProt P0ABM5 1-69) MTPAFASWNEFFAMGGCAFFVWLAVVMTVIPLVVLVVHSVMQHRAILRGVAQQRAREARLRAAQQQEAA"
2,binds,"CcmD(I46C):flag, in GST:CcmC(D:flag)E(H130A) (protein, UniProt P0ABM5 1-69) MTPAFASWNEFFAMGGYAFFVWLAVVMTVIPLVVLVVHSVMQHRACLRGVAQQRAREARLRAAQQQEAA"
3,binds,"CcmD(Q42C), in GST:CcmCDE(H130A) (protein, UniProt P0ABM5 1-69) MTPAFASWNEFFAMGGYAFFVWLAVVMTVIPLVVLVVHSVMCHRAILRGVAQQRAREARLRAAQQQEAA"
4,binds,"CcmD(Y17C), in GST:CcmCDE(H130A) (protein, UniProt P0ABM5 1-69) MTPAFASWNEFFAMGGCAFFVWLAVVMTVIPLVVLVVHSVMQHRAILRGVAQQRAREARLRAAQQQEAA"
5,binds,"CcmD:flag (wild type), in GST:CcmC(D:flag)E(H130A) (protein, UniProt P0ABM5 1-69) MTPAFASWNEFFAMGGYAFFVWLAVVMTVIPLVVLVVHSVMQHRAILRGVAQQRAREARLRAAQQQEAA"
